Test [1] has as its target LILRB2, transcript variant 1 (leukocyte immunoglobulin-like receptor, subfamily B, member 2) (human) (UniProt Q8N423). Nature of the test: AP-OMgp on transfected COS7 cells, chromogenic AP substrate.
Test [2] deals with T1, PirB (paired-immunoglobulin-like receptor B), mouse (mouse) (UniProt P97484).
T1 sequence: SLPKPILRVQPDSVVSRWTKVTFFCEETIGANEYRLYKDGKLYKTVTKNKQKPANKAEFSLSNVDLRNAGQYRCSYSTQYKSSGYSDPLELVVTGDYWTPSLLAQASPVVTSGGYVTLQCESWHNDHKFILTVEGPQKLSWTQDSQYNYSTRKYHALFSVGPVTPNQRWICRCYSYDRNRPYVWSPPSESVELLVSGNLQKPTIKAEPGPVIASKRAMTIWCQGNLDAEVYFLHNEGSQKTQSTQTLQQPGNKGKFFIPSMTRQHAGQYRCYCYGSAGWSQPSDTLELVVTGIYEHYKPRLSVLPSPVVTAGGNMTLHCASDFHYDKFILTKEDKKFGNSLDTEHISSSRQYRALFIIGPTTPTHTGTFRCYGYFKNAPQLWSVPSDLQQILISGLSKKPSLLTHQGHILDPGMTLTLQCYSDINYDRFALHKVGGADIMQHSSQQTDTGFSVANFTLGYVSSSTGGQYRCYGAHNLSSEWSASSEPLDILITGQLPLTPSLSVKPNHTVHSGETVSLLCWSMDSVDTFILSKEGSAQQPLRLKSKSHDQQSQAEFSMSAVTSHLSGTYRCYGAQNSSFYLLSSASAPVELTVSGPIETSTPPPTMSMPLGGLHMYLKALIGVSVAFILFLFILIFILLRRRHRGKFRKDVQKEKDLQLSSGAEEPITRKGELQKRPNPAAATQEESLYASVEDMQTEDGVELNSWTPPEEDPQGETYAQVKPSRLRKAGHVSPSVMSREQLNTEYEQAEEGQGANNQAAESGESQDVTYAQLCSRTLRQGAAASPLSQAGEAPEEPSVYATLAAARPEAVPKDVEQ
The description is as above.

Amino acid sequences for entries named in this document (tags omitted). A change or cut given only in a name is not applied to a line headed by its entry.
UniProt Q8N423: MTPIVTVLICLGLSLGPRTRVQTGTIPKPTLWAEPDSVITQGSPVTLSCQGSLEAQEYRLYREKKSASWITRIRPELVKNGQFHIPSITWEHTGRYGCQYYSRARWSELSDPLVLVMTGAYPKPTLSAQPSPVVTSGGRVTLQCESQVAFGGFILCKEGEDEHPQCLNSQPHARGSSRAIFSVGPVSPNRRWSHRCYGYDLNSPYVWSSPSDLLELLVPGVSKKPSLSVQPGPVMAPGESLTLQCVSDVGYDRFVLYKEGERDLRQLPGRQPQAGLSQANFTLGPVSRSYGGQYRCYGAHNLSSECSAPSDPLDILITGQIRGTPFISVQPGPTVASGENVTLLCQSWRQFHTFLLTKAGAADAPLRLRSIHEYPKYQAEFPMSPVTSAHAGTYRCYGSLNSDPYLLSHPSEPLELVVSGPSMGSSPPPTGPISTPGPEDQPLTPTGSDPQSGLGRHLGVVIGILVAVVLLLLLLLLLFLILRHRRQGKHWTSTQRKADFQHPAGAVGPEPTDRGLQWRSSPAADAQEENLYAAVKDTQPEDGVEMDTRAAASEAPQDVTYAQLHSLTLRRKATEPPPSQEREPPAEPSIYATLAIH
UniProt P97484: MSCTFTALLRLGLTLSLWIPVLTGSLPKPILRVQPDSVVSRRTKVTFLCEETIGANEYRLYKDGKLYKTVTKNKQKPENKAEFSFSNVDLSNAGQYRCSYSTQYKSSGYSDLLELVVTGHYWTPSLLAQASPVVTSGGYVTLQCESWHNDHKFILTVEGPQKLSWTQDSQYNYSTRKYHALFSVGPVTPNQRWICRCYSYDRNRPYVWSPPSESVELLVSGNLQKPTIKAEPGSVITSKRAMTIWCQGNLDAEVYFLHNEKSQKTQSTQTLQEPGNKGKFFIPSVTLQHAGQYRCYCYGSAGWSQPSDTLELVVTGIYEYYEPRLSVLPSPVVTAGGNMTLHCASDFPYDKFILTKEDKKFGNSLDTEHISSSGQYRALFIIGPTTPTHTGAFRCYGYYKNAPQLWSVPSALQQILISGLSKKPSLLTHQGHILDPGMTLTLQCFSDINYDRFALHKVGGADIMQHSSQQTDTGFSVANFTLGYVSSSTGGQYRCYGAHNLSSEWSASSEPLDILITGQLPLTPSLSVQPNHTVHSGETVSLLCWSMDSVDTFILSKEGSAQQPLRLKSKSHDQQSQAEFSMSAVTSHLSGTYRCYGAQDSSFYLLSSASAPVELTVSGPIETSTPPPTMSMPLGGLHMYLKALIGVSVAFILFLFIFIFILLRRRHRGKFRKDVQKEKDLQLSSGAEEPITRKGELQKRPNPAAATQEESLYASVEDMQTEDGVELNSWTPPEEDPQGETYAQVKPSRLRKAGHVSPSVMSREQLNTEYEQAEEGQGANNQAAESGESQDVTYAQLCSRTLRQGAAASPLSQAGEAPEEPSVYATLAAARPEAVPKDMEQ

The target of test [3] is T2, Homo sapiens hypothetical protein from clone 643 (LOC57228), alternative ORF homologous to SMAG (human) (UniProt Q0VAQ4).
T2 sequence (looked up): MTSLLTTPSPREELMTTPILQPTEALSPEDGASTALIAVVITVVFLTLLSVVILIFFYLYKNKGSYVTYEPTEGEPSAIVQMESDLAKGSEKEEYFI
Put plainly: expression cloning, AP-fusion bait (20-50 nM) on COS7 cells transfected with human cDNA pools.

The target of test [4] is T3, Nogo Receptor (hit from the human cDNA library) (human) (UniProt Q9BZR6).
T3 sequence (looked up): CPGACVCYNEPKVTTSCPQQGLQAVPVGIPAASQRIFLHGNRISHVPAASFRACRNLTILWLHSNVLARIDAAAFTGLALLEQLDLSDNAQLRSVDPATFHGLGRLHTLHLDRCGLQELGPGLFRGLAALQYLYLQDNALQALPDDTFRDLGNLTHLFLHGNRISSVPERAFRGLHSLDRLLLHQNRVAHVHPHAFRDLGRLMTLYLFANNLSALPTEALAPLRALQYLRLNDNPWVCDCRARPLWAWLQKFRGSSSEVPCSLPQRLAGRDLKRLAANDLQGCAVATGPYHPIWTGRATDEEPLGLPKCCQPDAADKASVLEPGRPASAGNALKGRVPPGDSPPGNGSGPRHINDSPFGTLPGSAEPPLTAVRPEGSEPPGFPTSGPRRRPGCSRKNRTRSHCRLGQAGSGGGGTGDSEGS
Described as above.

Results are given in words; binding and its absence hold for the method and conditions named. Some binding calls cover weakened binding; strength is not graded here.

The values below come from patent US20100047232A1.

B1: AP-OMgp (ligand, UniProt P23515 25-417, looked up, not shown: large carriers)
chain: ICPLQCICTERHRHVDCSGRNLSTLPSGLQENIIHLNLSYNHFTDLHNQLTQYTNLRTLDISNNRLESLPAHLPRSLWNMSAANNNIKLLDKSDTAYQWNLKYLDVSKNMLEKVVLIKNTLRSLEVLNLSSNKLWTVPTNMPSKLHIVDLSNNSLTQILPGTLINLTNLTHLYLHNNKFTFIPDQSFDQLFQLQEITLYNNRWSCDHKQNITYLLKWMMETKAHVIGTPCSTQISSLKEHNMYPTPSGFTSSLFTVSGMQTVDTINSLSVVTQPKVTKIPKQYRTKETTFGATLSKDTTFTSTDKAFVPYPEDTSTETINSHEAAAATLTIHLQDGMVTNTSLTSSTKSSPTPMTLSITSGMPNNFSEMPQQSTTLNLWREETTTNVKTPLPS
Take B1: the binding result in test [1] and in test [2] was “binds” in each case.

B2: MAG-AP (ligand, UniProt P20916 20-516, looked up, not shown: large carriers)
chain: GHWGAWMPSSISAFEGTCVSIPCRFDFPDELRPAVVHGVWYFNSPYPKNYPPVVFKSRTQVVHESFQGRSRLLGDLGLRNCTLLLSNVSPELGGKYYFRGDLGGYNQYTFSEHSVLDIVNTPNIVVPPEVVAGTEVEVSCMVPDNCPELRPELSWLGHEGLGEPAVLGRLREDEGTWVQVSLLHFVPTREANGHRLGCQASFPNTTLQFEGYASMDVKYPPVIVEMNSSVEAIEGSHVSLLCGADSNPPPLLTWMRDGTVLREAVAESLLLELEEVTPAEDGVYACLAENAYGQDNRTVGLSVMYAPWKPTVNGTMVAVEGETVSILCSTQSNPDPILTIFKEKQILSTVIYESELQLELPAVSPEDDGEYWCVAENQYGQRATAFNLSVEFAPVLLLESHCAAARDTVQCLCVVKSNPEPSVAFELPSRNVTVNESEREFVYSERSGLVLTSILTLRGQAQAPPRVICTARNLYGAKSLELPFQGAHRLMWAKIGP
Take B2: the binding result in test [3] and in test [4] was “binds” each time.
